Data taken from publication PMC5458509.
Results are given in words; binding and its absence hold for the method and conditions named. In cells and extracts the contact can be indirect. Some results given as binding are weak or reduced against the parent protein; the word gives no strength. For some assays here: Tags and fused reporters may be left off the sequences shown.

Sequences of proteins named here, by UniProt entry; tags and fusion partners are left off.
UniProt P20081: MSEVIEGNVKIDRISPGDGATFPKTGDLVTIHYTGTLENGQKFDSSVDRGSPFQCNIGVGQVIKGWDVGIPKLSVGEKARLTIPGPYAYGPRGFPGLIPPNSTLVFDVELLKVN
UniProt P33302: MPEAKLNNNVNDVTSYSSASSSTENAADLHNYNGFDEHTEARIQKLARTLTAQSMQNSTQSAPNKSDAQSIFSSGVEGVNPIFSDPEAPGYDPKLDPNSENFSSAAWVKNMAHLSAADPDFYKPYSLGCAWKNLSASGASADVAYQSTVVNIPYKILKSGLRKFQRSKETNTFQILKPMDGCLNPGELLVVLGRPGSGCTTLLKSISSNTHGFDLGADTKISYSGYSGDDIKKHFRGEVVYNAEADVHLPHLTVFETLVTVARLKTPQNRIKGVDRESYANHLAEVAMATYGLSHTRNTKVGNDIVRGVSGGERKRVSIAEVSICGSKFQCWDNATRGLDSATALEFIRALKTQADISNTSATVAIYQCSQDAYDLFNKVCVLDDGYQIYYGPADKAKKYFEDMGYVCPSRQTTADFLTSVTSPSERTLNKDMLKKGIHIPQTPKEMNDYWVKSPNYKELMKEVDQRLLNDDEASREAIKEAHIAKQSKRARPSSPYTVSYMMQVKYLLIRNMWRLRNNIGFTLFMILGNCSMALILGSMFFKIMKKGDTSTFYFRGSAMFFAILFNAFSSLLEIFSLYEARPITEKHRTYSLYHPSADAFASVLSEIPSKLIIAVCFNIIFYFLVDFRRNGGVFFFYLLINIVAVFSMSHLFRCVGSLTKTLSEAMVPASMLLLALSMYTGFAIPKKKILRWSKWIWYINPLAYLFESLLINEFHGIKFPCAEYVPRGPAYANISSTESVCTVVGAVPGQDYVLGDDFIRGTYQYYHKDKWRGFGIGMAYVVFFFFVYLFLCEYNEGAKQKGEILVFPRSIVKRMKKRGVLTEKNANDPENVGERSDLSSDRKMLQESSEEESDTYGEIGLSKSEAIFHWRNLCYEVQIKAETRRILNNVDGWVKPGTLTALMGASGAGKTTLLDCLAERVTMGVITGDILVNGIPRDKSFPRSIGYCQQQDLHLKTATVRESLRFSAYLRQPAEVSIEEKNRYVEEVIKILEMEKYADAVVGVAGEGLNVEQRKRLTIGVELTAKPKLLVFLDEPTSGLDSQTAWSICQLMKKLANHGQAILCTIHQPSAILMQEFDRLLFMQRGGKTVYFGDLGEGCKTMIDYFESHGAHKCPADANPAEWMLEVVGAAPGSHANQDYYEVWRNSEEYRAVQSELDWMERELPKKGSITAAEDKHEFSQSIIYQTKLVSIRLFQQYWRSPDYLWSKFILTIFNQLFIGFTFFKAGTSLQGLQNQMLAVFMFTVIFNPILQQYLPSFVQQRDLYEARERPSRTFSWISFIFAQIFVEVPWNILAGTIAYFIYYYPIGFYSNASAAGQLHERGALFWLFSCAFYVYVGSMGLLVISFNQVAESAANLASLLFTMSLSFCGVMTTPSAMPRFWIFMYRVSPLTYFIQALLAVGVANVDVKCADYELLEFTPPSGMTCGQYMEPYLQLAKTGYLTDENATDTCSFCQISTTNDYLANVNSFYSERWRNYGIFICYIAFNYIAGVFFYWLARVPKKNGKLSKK
UniProt P32568: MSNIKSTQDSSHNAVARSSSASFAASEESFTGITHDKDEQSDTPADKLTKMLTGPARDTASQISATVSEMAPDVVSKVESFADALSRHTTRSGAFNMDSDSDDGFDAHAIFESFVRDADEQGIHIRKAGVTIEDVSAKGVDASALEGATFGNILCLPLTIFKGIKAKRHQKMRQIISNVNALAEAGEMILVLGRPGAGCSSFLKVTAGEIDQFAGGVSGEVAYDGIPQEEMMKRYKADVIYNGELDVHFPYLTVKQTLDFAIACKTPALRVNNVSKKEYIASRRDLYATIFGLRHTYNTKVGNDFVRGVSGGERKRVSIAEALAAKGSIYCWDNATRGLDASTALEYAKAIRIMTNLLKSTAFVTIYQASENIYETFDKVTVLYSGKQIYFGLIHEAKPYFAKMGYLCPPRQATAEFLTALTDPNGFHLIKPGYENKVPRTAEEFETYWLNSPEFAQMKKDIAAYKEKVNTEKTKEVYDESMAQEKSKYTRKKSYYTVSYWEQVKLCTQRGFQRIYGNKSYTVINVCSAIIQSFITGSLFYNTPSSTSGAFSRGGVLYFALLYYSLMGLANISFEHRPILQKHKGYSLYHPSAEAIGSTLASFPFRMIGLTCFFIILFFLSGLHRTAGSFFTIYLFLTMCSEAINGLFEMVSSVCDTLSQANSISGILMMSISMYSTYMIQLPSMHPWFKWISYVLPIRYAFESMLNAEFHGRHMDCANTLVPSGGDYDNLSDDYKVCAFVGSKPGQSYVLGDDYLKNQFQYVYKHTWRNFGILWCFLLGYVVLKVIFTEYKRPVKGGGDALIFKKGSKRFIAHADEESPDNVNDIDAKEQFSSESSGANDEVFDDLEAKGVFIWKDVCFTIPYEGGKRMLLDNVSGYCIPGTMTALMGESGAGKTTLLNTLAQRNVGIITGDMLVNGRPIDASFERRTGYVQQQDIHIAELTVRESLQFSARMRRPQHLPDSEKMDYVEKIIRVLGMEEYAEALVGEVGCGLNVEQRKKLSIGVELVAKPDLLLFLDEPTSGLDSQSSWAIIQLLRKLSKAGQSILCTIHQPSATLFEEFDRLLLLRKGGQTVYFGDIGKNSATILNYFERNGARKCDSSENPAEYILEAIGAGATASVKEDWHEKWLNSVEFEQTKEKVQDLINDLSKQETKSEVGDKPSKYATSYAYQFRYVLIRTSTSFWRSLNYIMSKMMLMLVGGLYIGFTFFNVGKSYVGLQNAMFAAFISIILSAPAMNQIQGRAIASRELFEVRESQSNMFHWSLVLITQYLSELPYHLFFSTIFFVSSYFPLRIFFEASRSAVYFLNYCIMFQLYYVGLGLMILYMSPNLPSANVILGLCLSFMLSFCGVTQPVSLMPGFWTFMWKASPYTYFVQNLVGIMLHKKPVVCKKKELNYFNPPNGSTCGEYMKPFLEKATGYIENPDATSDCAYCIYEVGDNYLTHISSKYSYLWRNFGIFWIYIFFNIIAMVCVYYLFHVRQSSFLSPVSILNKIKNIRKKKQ

T1: aspartate kinase Hom3-mDHFR-F[1,2] (bait PCA construct) (S. cerevisiae) (UniProt P10869)
T1 sequence: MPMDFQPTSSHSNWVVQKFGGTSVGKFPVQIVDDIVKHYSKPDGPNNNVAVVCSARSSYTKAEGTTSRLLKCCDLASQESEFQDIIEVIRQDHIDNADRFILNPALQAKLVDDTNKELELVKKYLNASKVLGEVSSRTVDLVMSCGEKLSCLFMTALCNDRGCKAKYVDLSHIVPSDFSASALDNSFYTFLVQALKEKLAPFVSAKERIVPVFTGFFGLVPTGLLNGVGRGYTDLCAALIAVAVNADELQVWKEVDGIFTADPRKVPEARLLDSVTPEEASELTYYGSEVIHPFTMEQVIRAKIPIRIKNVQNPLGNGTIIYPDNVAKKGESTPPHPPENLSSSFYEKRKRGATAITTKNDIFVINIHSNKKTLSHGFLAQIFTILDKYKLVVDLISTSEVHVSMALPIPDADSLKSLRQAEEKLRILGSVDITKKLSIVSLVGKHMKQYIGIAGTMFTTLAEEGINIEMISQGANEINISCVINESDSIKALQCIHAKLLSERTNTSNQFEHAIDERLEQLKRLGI

T2: Ftr1-mDHFR-F[1,2] (bait PCA construct) (S. cerevisiae) (UniProt P40088)
T2 sequence: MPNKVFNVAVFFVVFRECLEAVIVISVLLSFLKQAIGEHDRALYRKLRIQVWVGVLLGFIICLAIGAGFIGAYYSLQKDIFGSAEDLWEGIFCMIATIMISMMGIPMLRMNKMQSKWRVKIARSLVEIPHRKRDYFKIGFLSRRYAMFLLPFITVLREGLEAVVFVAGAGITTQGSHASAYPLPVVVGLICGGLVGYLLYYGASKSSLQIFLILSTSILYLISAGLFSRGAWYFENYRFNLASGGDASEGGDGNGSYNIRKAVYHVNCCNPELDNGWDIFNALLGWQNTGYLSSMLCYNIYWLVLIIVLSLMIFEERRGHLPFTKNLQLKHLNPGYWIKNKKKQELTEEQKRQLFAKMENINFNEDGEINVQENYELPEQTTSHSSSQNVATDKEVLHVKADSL

T3: Fmp45-mDHFR-F[1,2] (bait PCA construct) (S. cerevisiae) (UniProt Q07651)
T3 sequence: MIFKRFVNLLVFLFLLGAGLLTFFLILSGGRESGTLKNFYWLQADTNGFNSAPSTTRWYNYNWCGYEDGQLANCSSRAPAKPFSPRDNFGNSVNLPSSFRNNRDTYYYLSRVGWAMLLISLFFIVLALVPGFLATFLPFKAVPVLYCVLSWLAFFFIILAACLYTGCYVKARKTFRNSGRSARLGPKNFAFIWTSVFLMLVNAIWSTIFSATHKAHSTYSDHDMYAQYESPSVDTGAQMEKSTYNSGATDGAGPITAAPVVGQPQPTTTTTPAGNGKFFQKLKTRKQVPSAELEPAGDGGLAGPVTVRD

T4: Tpo1-mDHFR-F[1,2] (bait PCA construct) (S. cerevisiae) (UniProt Q07824)
T4 sequence: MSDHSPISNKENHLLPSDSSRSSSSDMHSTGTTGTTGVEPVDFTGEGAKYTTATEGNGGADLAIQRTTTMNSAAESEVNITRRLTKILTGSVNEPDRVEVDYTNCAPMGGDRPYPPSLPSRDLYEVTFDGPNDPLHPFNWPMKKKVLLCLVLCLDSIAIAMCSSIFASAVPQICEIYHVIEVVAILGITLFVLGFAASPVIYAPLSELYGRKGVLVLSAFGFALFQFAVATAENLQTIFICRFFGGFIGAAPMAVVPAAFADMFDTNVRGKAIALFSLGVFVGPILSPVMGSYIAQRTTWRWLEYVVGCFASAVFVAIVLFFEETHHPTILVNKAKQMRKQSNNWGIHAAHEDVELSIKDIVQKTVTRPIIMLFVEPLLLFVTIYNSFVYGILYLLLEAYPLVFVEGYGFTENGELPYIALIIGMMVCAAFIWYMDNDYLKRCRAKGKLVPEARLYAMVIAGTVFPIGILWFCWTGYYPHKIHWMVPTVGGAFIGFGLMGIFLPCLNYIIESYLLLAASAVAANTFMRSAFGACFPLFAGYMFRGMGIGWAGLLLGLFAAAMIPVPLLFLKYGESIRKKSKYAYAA

T5: Ftr1-Rluc PCA fragment fusion (bait of the Renilla luciferase PCA) (S. cerevisiae) (UniProt P40088)
T5 sequence: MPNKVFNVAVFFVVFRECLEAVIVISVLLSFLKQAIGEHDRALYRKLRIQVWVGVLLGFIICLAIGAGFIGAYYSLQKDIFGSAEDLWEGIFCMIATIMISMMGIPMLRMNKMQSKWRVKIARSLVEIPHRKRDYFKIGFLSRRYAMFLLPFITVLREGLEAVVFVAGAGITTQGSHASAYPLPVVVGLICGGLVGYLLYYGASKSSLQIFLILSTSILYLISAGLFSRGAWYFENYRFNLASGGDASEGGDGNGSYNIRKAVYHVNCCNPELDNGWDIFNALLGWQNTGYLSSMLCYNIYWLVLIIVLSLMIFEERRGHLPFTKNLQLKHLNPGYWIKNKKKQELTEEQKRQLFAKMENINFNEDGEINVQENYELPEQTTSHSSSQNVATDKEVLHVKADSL

T6: Shr3-mDHFR-F[1,2] (bait PCA construct) (S. cerevisiae) (UniProt Q02774)
T6 sequence: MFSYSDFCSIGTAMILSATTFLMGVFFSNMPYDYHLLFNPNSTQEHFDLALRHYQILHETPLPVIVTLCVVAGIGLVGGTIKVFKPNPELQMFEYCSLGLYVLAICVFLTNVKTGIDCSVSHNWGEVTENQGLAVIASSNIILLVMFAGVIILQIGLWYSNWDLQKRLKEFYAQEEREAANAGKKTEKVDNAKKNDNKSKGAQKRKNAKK


Columns and labels:
[1] = target: T1, aspartate kinase Hom3-mDHFR-F[1,2] (bait PCA construct) (S. cerevisiae); test: split reporter; PPiSeq: split mDHFR PCA in diploid S. cerevisiae, pooled growth of double-barcoded strains with 0.5 ug/ml methotrexate, barcode sequencing every 3 generations over ~12 generations, fitness relative to control strains lacking mDHFR; permissive environment (0.5% DMSO)
[2] = target: T2, Ftr1-mDHFR-F[1,2] (bait PCA construct) (S. cerevisiae); test: split reporter; split mDHFR PCA, isolated growth of diploid strains in liquid medium with 0.5 ug/ml methotrexate, optical density (OD600) tracked up to 32 h at 30 C, compared with mDHFR(-) control strains
[3] = target: T2, Ftr1-mDHFR-F[1,2] (bait PCA construct) (S. cerevisiae); test: split reporter; PPiSeq: split mDHFR PCA in diploid S. cerevisiae, pooled growth of double-barcoded strains with 0.5 ug/ml methotrexate, barcode sequencing every 3 generations over ~12 generations, fitness relative to control strains lacking mDHFR; permissive environment (0.5% DMSO)
[4] = target: T3, Fmp45-mDHFR-F[1,2] (bait PCA construct) (S. cerevisiae); test: split reporter; PPiSeq: split mDHFR PCA in diploid S. cerevisiae, pooled growth with 0.5 ug/ml methotrexate and one of four perturbagens: 0.001% hydrogen peroxide, 175 mM sodium chloride, 200 uM copper sulfate or 50 uM FK506; fitness relative to control strains lacking mDHFR
[5] = target: T2, Ftr1-mDHFR-F[1,2] (bait PCA construct) (S. cerevisiae); test: as above
[6] = target: T4, Tpo1-mDHFR-F[1,2] (bait PCA construct) (S. cerevisiae); test: as above
[7] = target: T5, Ftr1-Rluc PCA fragment fusion (bait of the Renilla luciferase PCA) (S. cerevisiae); test: split reporter; Renilla luciferase (Rluc) PCA in diploid S. cerevisiae, luminescence of 1-2 x 10^7 cells in PBS pH 7.2 with 1 mM EDTA and 20 uM benzyl coelenterazine; cells grown with 200 uM copper sulfate
[8] = target: T6, Shr3-mDHFR-F[1,2] (bait PCA construct) (S. cerevisiae); test: split reporter; PPiSeq: split mDHFR PCA in diploid S. cerevisiae, pooled growth with 0.5 ug/ml methotrexate and one of four perturbagens: 0.001% hydrogen peroxide, 175 mM sodium chloride, 200 uM copper sulfate or 50 uM FK506; fitness relative to control strains lacking mDHFR

| binding [4] | binding [5] | binding [6] | Molecule | further results |
| --- | --- | --- | --- | --- |
| – | – | – | peptidyl-prolyl cis-trans isomerase Fpr1-mDHFR-F[3] (prey PCA construct) (from UniProt P20081 1-114) | binding [1]: binds |
| binds | binds | binds | Pdr5-mDHFR-F[3] (prey PCA construct) (from UniProt P33302 1-1511) | binding [2]: binds; binding [3]: binds |
| – | – | binds | Snq2-mDHFR-F[3] (prey PCA construct) (from UniProt P32568 1-1501) | – |
| – | – | – | Pdr5-Rluc PCA fragment fusion (prey of the Renilla luciferase PCA) (from UniProt P33302 1-1511) | binding [7]: binds |
| binds | binds | – | Hxt1-mDHFR-F[3] (prey PCA construct) (protein, UniProt P32465 1-570) MNSTPDLISPQKSNSSNSYELESGRSKAMNTPEGKNESFHDNLSESQVQPAVAPPNTGKGVYVTVSICCVMVAFGGFIFGWDTGTISGFVAQTDFLRRFGMKHHDGSHYLSKVRTGLIVSIFNIGCAIGGIVLAKLGDMYGRRIGLIVVVVIYTIGIIIQIASINKWYQYFIGRIISGLGVGGITVLSPMLISEVAPSEMRGTLVSCYQVMITLGIFLGYCTNFGTKNYSNSVQWRVPLGLCFAWALFMIGGMMFVPESPRYLVEAGRIDEARASLAKVNKCPPDHPYIQYELETIEASVEEMRAAGTASWGELFTGKPAMFQRTMMGIMIQSLQQLTGDNYFFYYGTIVFQAVGLSDSFETSIVFGVVNFFSTCCSLYTVDRFGRRNCLMWGAVGMVCCYVVYASVGVTRLWPNGQDQPSSKGAGNCMIVFACFYIFCFATTWAPIAYVVISECFPLRVKSKCMSIASAANWIWGFLISFFTPFITGAINFYYGYVFMGCMVFAYFYVFFFVPETKGLSLEEVNDMYAEGVLPWKSASWVPVSKRGADYNADDLMHDDQPFYKSLFSRK | binding [8]: binds |
